Several values for one entry are separate records, joined by “and”; a condition that tells them apart may be missing. Identical values can stand only once. The list shows a part of the results. Each value is one well over the wells without odorant, computed here; the data are noisy.

Experiment in all cases: odorant receptor activation (CRE luciferase / Renilla) (fold of no-odor wells); higher = more activation
What all share (conditions): 100 µM

Assay [1] concerns OR52N4 T106I/L167R/N218I clone 1127.
For assay [2], the system named is OR52N5 clone 1238.
Assay [3] deals with OR52P1 clone 1221.
Assay [4] concerns OR52R1 I129T/N201Y/S245A clone 1705.
Assay [5] has as its system OR52W1 clone 1234.
For assay [6], the system named is OR56A1 clone 1114.
Assay [7] has as its system OR56A3 M51T clone 1128.
Assay [8] relates to OR56A4 clone 1724.
For assay [9], the system named is OR56A5 clone 1708.
The subject of assay [10] is OR56B1 C106R clone 1168.
The subject of assay [11] is OR56B4 P277S clone 1224.
Assay [12] relates to OR5A1 I52V clone 1131.
For assay [13], the system named is OR5A1 clone 1130.
The test system of assay [14] is OR5A1 clone 1507.
Assay [15] relates to OR5A2 clone 1132.
Assay [16] concerns OR5AC2 M200I clone 1490.
The test system of assay [17] is OR5AK2 M92I clone 1335.
Assay [18] deals with OR5AK2 clone 1438.
Assay [19] deals with OR5AK3 clone 1336.
Assay [20] deals with OR5AL1 clone 1362.

`CC(C)CC(=O)O` [isovaleric acid]: the odorant receptor activation in assay [1] was 1.32; in assay [2], 1.11; in assay [3] it was 1.2; in assay [4], 1.07; in assay [5], 0.942; in assay [6] it was 0.775. Also, the odorant receptor activation in assay [7] was 1.32; in assay [8] it was 0.837; in assay [9], 1.44; in assay [10], 0.955; in assay [11], 1.11; in assay [12], 1.11. Further, the odorant receptor activation came out at 1.34 in assay [13]; 0.949 in [14]; 1.03 in assay [15]; 0.875 in assay [16]; 0.861 in assay [17]; 0.899 in [18]. Also, the odorant receptor activation in assay [19] was 0.825; in assay [20], 1.32.
As to `CC(=O)OC(C)(C)C1CC=C(C)CC1` (configuration not stated) [terpinyl acetate], the odorant receptor activation was 1.08 in assay [1]; 1.19 in assay [2]; 1.13 in assay [3]; 1.2 in assay [4]; 0.874 in [5]; 1.48 in assay [6]. Moreover, the odorant receptor activation amounted to 1.2 in [7]; 0.958 in assay [8]; 1.18 in [9]; 1.41 in [10]; 1.18 in assay [11]; 1.3 in [12]. For the same molecule, the odorant receptor activation in [13] stood at 1.43; in assay [14] it was 0.886; in assay [15], 1.33; in [16], 1.1; in assay [17], 0.875; in [18] it was 0.944. The odorant receptor activation in assay [19] worked out at 0.904; in assay [20], 0.896.
Take `CC(C)C=O` [isobutyraldehyde]: the odorant receptor activation in assay [1] is 1.07; in assay [2] it was 0.839; in [3], 1.18; in assay [4], 0.974; in assay [5], 0.643; in [6] it was 1.14. Besides, the odorant receptor activation in [7] stood at 1.63; in [8], 0.759; in assay [9], 1.12; in [10] it was 1.15; in assay [11], 1.09; in [12] it was 1.26. Also, the odorant receptor activation in assay [13] is 0.914; in [14], 1.01 and 1.09; in [15], 0.918; in [16], 0.762 and 1.09; in assay [17] it was 1.53 and 1.1; in [18] it was 0.829. Besides, the odorant receptor activation in assay [19] was 1.13 and 0.647; in assay [20] it was 0.761.
`CCCCCCC=O` [heptaldehyde]: the odorant receptor activation in assay [1] is 1.54; in assay [2] it was 1.16; in assay [3], 0.298 and 0.799; in [4], 0.954; in assay [5], 1.29; in assay [6], 0.823 and 1.19. In addition, the odorant receptor activation was 0.797 in assay [8]; 0.608 in [9]; 0.479 and 1.11 in [10]; 0.367 and 0.927 in [11]; 0.349 and 0.955 in assay [12]; 0.361 and 0.806 in assay [13]. For the same molecule, the odorant receptor activation in assay [15] is 0.564 and 0.878; in [18], 0.951 and 0.702; in assay [20], 1 and 0.827.
On to `CCCCCCCCCCC=O` [undecanal], for which the odorant receptor activation in assay [1] worked out at 1.04; in assay [2], 1.16; in [3], 0.906; in [4] it was 0.922; in [5], 1.7; in assay [6] it was 1.8. Besides, the odorant receptor activation in assay [7] was 0.987; in assay [8], 10.8; in assay [9] it was 1.26; in assay [10] it was 1.21; in assay [11], 0.9; in assay [12], 0.88. In addition, the odorant receptor activation came out at 1.31 in assay [13]; 0.966 in [14]; 0.948 in assay [15]; 1.03 in [16]; 0.936 in assay [17]; 1.42 in [18]. Further, the odorant receptor activation in [19] was determined as 1.04; in [20], 1.07.
For the molecule `CCCCCCCC=O` [octyl aldehyde], the odorant receptor activation in assay [1] was found to be 0.866; in assay [2] it was 0.854; in assay [3], 1.1; in assay [4] it was 1.09; in assay [5], 0.842; in assay [6], 1.04. For the same molecule, the odorant receptor activation in [7] came to 1.24; in assay [8] it was 0.639; in [9] it was 1.16; in assay [10], 1.08; in [11] it was 0.92; in assay [12], 0.803. Besides, the odorant receptor activation in assay [13] stood at 1.02; in assay [14] it was 1.15; in [15], 1.05; in assay [16], 0.918; in assay [17] it was 1.18; in assay [18], 1.09. The values for the odorant receptor activation in assay [19] and in assay [20] were 1.02 and 1.18, respectively.
Consider `CC(=O)OC1CC2CCC1(C)C2(C)C` (configuration not stated) [isobornyl acetate], for which the odorant receptor activation in assay [1] amounted to 0.916; in assay [2], 0.911; in assay [3], 0.885; in assay [4] it was 0.963; in assay [5], 0.67; in [6] it was 0.811. The odorant receptor activation in assay [7] is 1.34; in assay [8], 0.745; in [9] it was 1.04; in [10] it was 1.14; in assay [11], 0.844; in assay [12], 1.45. For the same molecule, the odorant receptor activation is 1.01 in [13]; 0.92 and 1.05 in assay [14]; 1.01 in [15]; 0.632 and 1.27 in [16]; 1.81 and 0.986 in [17]; 0.845 in [18]. Further, the odorant receptor activation in assay [19] was 1.57 and 0.532; in [20], 0.883.
Take `CCCCCC(C)=O` [2-heptanone]: the odorant receptor activation amounted to 1.09 in assay [3]; 0.682 in [6]; 1.18 in assay [7]; 1.36 in [10]; 0.984 in assay [11]; 0.968 in [12]. The odorant receptor activation was 0.931 in assay [13]; 1.11 and 0.654 in [14]; 1.36 in [15]; 1.07 and 0.75 in assay [16]; 0.781 in assay [17]; 0.892 in assay [18]. Moreover, the odorant receptor activation in assay [19] is 0.925; in [20], 0.956.
As for `CC12C=CCC1C1CCC3CC(=O)CCC3(C)C1CC2` (configuration not stated) [androstenone], the odorant receptor activation in assay [3] is 6.32; in assay [6], 10.8; in [7], 9.87; in assay [10] it was 4.14; in assay [11], 8.16; in assay [12], 4.38. In addition, the odorant receptor activation in assay [13] was found to be 7.19; in assay [14], 0.994; in assay [15], 6; in assay [16] it was 1.17; in assay [17] it was 1.37; in [18], 1.11. Also, the odorant receptor activation in [19] was 1.18; in assay [20] it was 1.24.
Take `C=CCc1ccc(OC)c(OC)c1` [eugenol methyl ether]: the odorant receptor activation in assay [1] was 1.49; in assay [2] it was 1.13; in assay [3], 1.45; in [4] it was 0.744; in [5], 0.907; in [6] it was 1.05. In addition, the odorant receptor activation in assay [7] was 1.45; in assay [8], 0.68; in [9], 0.571; in [10], 1.35; in assay [11] it was 1.67; in [12], 1.34. The odorant receptor activation in assay [13] was determined as 1.39; in assay [14] it was 1.17; in [15], 1.85; in assay [16], 1.39; in assay [17], 1.65; in [18], 1.65. In addition, the odorant receptor activation in [19] turned out to be 1.35; in assay [20] it was 1.43.
For the molecule `CC12CCC(CC1)C(C)(C)O2` [cineole], the odorant receptor activation was determined as 0.725 in [1]; 0.593 in assay [2]; 0.957 in assay [3]; 0.859 in assay [4]; 0.856 in [5]; 0.795 in assay [6]. Besides, the odorant receptor activation turned out to be 0.844 in assay [7]; 0.868 in assay [8]; 0.943 in assay [9]; 0.798 in assay [10]; 0.916 in assay [11]; 0.966 in [12]. Moreover, the odorant receptor activation in [13] is 0.764; in assay [14], 0.901; in assay [15], 0.912; in [16], 0.755; in assay [17], 0.795; in assay [18] it was 0.202. Moreover, the odorant receptor activation in assay [19] turned out to be 1.06; in assay [20] it was 0.228.
As for `CCCC(=O)O` [butyric acid], the odorant receptor activation in [1] turned out to be 0.988; in assay [2], 0.532; in assay [3] it was 1.17; in assay [4] it was 0.783; in assay [5], 1.09; in assay [6], 0.983. Further, the odorant receptor activation in assay [7] was determined as 0.983; in assay [8], 0.71; in assay [9] it was 0.992; in assay [10], 1.1; in [11], 1.03; in assay [12], 0.939. In addition, the odorant receptor activation in [13] was 0.78; in [14], 1.28; in [15], 1.23; in assay [16], 1.15; in [17], 0.665; in assay [18], 0.21. Besides, the results for the odorant receptor activation in assay [19] and in assay [20] were 1.05 and 0.259, respectively.
As for `CC12C=CCC1C1CCC3=CC(=O)CCC3(C)C1CC2` (configuration not stated) [androstadienone], the odorant receptor activation in [3] is 1.17; in [6], 1.12; in assay [7], 0.897; in [10], 1.22; in assay [11], 0.807; in assay [12] it was 1.09. In addition, the odorant receptor activation in [13] was 1.11; in assay [14], 0.98 and 1.13; in assay [15] it was 0.785; in assay [16], 0.809 and 1.3; in assay [17], 2.06 and 1; in assay [18], 0.909. Further, the odorant receptor activation in [19] is 1.58 and 1.01; in [20], 0.965.
Regarding `CC1=CCC(C(C)(C)O)CC1` (configuration not stated) [terpineol], the odorant receptor activation in assay [1] is 0.969; in [2] it was 1.23; in [3], 0.895; in assay [4], 0.793; in assay [5], 1.06; in assay [6], 1.16. Further, the odorant receptor activation in assay [7] amounted to 1.44; in assay [8], 0.994; in assay [9], 1.12; in assay [10], 1.44; in assay [11] it was 1.1; in assay [12], 1.11. Further, the odorant receptor activation came out at 1.54 in assay [13]; 0.713 in assay [14]; 1.28 in assay [15]; 0.797 in assay [16]; 0.989 in [17]; 1.28 in assay [18]. Also, the figures for the odorant receptor activation in [19] and in [20] were 1.14 and 1.09, respectively.

(Values after the odorant receptor screen of Mainland et al. (2015).)
